{"sequences": {"note": "Chains of the proteins cited; added tags and fusions are not shown.", "UniProt P09471, whole entry, looked up": "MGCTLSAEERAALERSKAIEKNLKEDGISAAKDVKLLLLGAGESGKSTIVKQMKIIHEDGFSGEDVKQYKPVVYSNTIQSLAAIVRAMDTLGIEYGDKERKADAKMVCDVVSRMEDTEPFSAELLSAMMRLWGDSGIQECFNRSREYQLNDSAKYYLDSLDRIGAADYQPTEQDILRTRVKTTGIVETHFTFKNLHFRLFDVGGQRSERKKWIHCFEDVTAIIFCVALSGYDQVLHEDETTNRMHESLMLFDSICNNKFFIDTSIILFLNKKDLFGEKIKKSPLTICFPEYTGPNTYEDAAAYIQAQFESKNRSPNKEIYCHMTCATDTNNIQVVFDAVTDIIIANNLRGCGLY"}, "source": "PubChem BioAssay AID1439", "about": "(NMMLSC, 2008)", "note": "The whole screen tested about 220,000 compounds, of which about 770 (0.35%) were called active. Inconclusive means that the source gave no clear call. Such entries were picked first, then a sample of the others. No stated cut-off is given here; in the data, active means binding response below about 49% or above about 150%; inconclusive means no clear call, values can overlap the other calls; inactive means in between."}
{"target": "Guanine nucleotide-binding protein G(o) subunit alpha (Homo sapiens) (UniProt P09471)", "assay": "RGS7-Galphao binding modulators, primary screen, biochemical, multiplexed bead flow cytometry (AID 1439);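 further: fluorescent Galphao held in activated GDP-AlF4 state binding bead-coupled RGS7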", "details": "at 10 µM, actives lie on both sides"}
{"smiles": "Cc1cccn2c(=O)c(C=O)c(N3CCN(c4ccc(F)cc4)CC3)nc12", "binding response (% of control)": "inconclusive: 98.5%"}
{"smiles": "CC1Cc2cc(/C(O)=C3/C(=O)C(=O)N(CC4CCCO4)C3c3ccco3)ccc2O1", "note": "(configuration not stated)", "binding response (% of control)": "active: 186% [activator]"}
{"smiles": "Nc1ncnc(NC2CCS(=O)(=O)C2)c1[N+](=O)[O-]", "note": "(configuration not stated)", "binding response (% of control)": "inconclusive: 5.58%"}
{"smiles": "O=C(O)c1[nH]c2ccc([N+](=O)[O-])cc2c1-c1ccccc1", "binding response (% of control)": "inconclusive: 93.3%"}
{"smiles": "CC(=O)Nc1ccc2cc3ccc(NC(C)=O)cc3nc2c1", "binding response (% of control)": "inconclusive: 215%"}
{"smiles": "CCN(CC)C(=N)/C(C#N)=N/Nc1ccc(C)cc1", "binding response (% of control)": "inconclusive: 331%"}
{"smiles": "CCOC(=O)CC(=O)CSc1n[nH]c(=O)[nH]c1=O", "binding response (% of control)": "inconclusive: 105%"}
{"smiles": "COCCCn1c(=O)/c(=C\\c2ccccc2OC(F)F)s/c1=C(/C#N)C(=O)NCCOC", "binding response (% of control)": "inconclusive: 105%"}
{"smiles": "CCOC(=O)c1ccc(NC(=O)COc2ccccc2CNC2CCCC2)cc1", "binding response (% of control)": "inconclusive: 85.3%"}
{"smiles": "COc1ccccc1CCc1nnc(CCC(=O)NC(C)Cc2cccs2)o1", "note": "(configuration not stated)", "binding response (% of control)": "inactive: 101%"}
{"smiles": "CC(=O)Oc1ccc(C2C3=C(CC(C)(C)CC3=O)Nc3cc4c(cc32)OCCO4)cc1", "note": "(configuration not stated)", "binding response (% of control)": "inconclusive: 93.9%"}
{"smiles": "Cc1oc2ccccc2c1CC(=O)NCCCN(C)C", "binding response (% of control)": "inconclusive: 87.6%"}
{"smiles": "CC1(C)Cc2c(sc3nnn(CC(=O)Nc4ccccc4)c(=O)c23)CO1", "binding response (% of control)": "inconclusive: 107%"}
{"smiles": "O=[N+]([O-])c1ccc(C2NS(=O)(=O)N=C3CCCCCN32)cc1", "note": "(configuration not stated)", "binding response (% of control)": "inconclusive: 141%"}
{"smiles": "O=C(NC1CC1)c1ccc(-c2ccccc2)cc1", "binding response (% of control)": "inconclusive: 111%"}
{"smiles": "Cc1ccccc1-n1cnnc1SCC(=O)N1CCN(c2ccccc2)CC1", "binding response (% of control)": "inactive: 107%"}
{"smiles": "NC1=NC(c2ccccc2)=NC1(NC(=O)c1ccccc1)C(Cl)Cl", "note": "(configuration not stated)", "binding response (% of control)": "inconclusive: 76.6%"}
{"smiles": "CC1CC2=C(C(=O)O1)C(C)Nc1ccccc1N2", "note": "(configuration not stated)", "binding response (% of control)": "inactive: 86.7%"}
{"smiles": "COc1ccc(C(=O)Cn2c(C)nc([N+](=O)[O-])c2Br)cc1", "binding response (% of control)": "inconclusive: 101%"}
{"smiles": "C=CCNS(=O)(=O)c1cccc2cc(C(=O)O)c(O)cc12", "binding response (% of control)": "inactive: 108%"}
{"smiles": "NC(=O)CC(NC(=O)Cc1ccc(Br)cc1)c1ccc(N2CCN(c3ccccc3)CC2)c([N+](=O)[O-])c1", "note": "(configuration not stated)", "binding response (% of control)": "inconclusive: 100%"}
{"smiles": "C#CCSc1nnc(-c2ccccc2)c(=O)[nH]1", "binding response (% of control)": "active: 17%"}
{"smiles": "Cc1cc(C)cc(C(=O)NCC(=O)OCC(=O)N(C)c2ccccc2)c1", "binding response (% of control)": "inconclusive: 101%"}
{"smiles": "COc1ccccc1C1CCN(C(=O)c2cccs2)CC1", "binding response (% of control)": "inconclusive: 103%"}
{"smiles": "O=C(Nc1ccc(-n2ccnc2P(=O)(O)c2ccccc2)cc1)c1ccccc1Br", "binding response (% of control)": "active: 152% [activator]"}
{"smiles": "CSc1ncccc1C(=O)OCC(=O)NC(C)C", "binding response (% of control)": "inconclusive: 105%"}
{"smiles": "Cc1cc(C)c(C)c(S(=O)(=O)N2CCN(c3ccc(O)cc3)CC2)c1C", "binding response (% of control)": "inactive: 102%"}
{"smiles": "CC(C)(C)NC(=O)CN(C(=O)CNC(=O)c1cccs1)c1ccc2c(c1)OCCO2", "binding response (% of control)": "inactive: 99.9%"}
{"smiles": "Cc1nc(-c2ccccc2)sc1C1(C)CC(c2ccc(C#N)cc2)=NO1", "note": "(configuration not stated)", "binding response (% of control)": "inconclusive: 105%"}
{"smiles": "Cc1nn(-c2ccccc2)nc1-c1nnc(-c2ccc(C(F)(F)F)cc2)o1", "binding response (% of control)": "inconclusive: 85.1%"}
{"smiles": "COc1ccc(Cl)cc1NC(=O)CN(C1CCCCC1)S(C)(=O)=O", "binding response (% of control)": "inactive: 99.9%"}
{"smiles": "COCCCNc1ncnc2nc[nH]c12", "binding response (% of control)": "inactive: 102%"}
{"smiles": "O=C(Nc1ccc(C(F)(F)F)cn1)Nc1cccs1", "binding response (% of control)": "inconclusive: 113%"}
{"smiles": "CC(=O)NC1C(OCc2ccccc2)OC2COC(C)(C)OC2C1O", "note": "(configuration not stated)", "binding response (% of control)": "inactive: 105%"}
{"smiles": "Oc1ccc2c(ccc3[nH]cnc32)c1", "binding response (% of control)": "inconclusive: 109%"}
{"smiles": "COCc1cc(C)nc(SCC(=O)Nc2ccc(C)c(C)c2)c1C#N", "binding response (% of control)": "inactive: 98.6%"}
{"smiles": "Cc1ccccc1NC(=O)C1CC(=O)n2ncnc2N1", "note": "(configuration not stated)", "binding response (% of control)": "inconclusive: 101%"}
{"smiles": "Cc1cccc(C)c1NC(=S)NCc1ccncc1", "binding response (% of control)": "inconclusive: 16.8%"}
{"smiles": "Cn1cc(Br)c(-c2cccc(NC(=O)CCCC(=O)O)c2)n1", "binding response (% of control)": "inconclusive: 194%"}
{"smiles": "COc1ccc(N2CCN(Cc3nc4sc(C)c(C)c4c(=O)[nH]3)CC2)cc1", "binding response (% of control)": "inconclusive: 90.3%"}
{"smiles": "O=C(O)CCCNC(=O)c1ccc(NC(=O)Cc2ccc(Cl)cc2)cc1", "binding response (% of control)": "inactive: 103%"}
{"smiles": "Cc1cccc(NC(=S)NC(=O)c2ccc(Br)o2)c1C", "binding response (% of control)": "inconclusive: 97.1%"}
{"smiles": "CC1CSc2n(-c3cccc(C(F)(F)F)c3)cc(-c3ccccc3)[n+]21", "note": "(configuration not stated)", "binding response (% of control)": "inconclusive: 97.3%"}
{"smiles": "CCOc1ccc(N=C2NC(=O)SC2CC(=O)OC)cc1", "note": "(configuration not stated)", "binding response (% of control)": "inconclusive: 81.9%"}
{"smiles": "COC(=O)c1cnn(-c2ccccc2)c1/C=N/NC(=S)Nc1ccccc1", "binding response (% of control)": "inconclusive: 87.2%"}
{"smiles": "Fc1ccc(NC(=S)NCc2ccc3c(c2)OCO3)cc1", "binding response (% of control)": "inconclusive: 103%"}
{"smiles": "COc1ccc(C/C(C)=N\\NC(=O)c2c[nH]c3ccccc23)cc1OC", "binding response (% of control)": "inconclusive: 62.5%"}
